# Results: PubChem BioAssay AID901 (National Center for Advancing Translational Sciences (NCATS), 2007)
# This is one part of the list. The main result of the screen is listed elsewhere. These columns were measured beside it and carry no call. Most of these compounds were active or inconclusive in the main read-out, so they are no random draw. Potencies come from curve fits of mixed quality, noted in brackets.
# Test: qHTS Assay for Identifying the Cell-Membrane Permeable IMPase Inhibitors
# Conditions: CHO-M1 cells, IP1 accumulation, HTRF TR-FRET ratio; measured here: donor channel 620 nm AC50
row,Compound,AC50
1,Cc1ccc(O)c(N=CC2=C(O)c3ccccc3C2=O)c1,"10 µM [rising, partial curve]"
2,CC1CCc2c(sc3nn[nH]c(=O)c23)C1 (stereo not drawn),"12.6 µM [falling, partial curve, poor fit]"
3,O=C(COc1cc(O)c2c(=O)cc(-c3ccccc3)oc2c1)c1ccc(F)cc1,"6.31 µM [rising, full curve]"
4,O=C1c2c(O)ccc(O)c2C(=O)c2c(NCCNCCO)ccc(NCCNCCO)c21,"10 µM [falling, partial curve]"
5,O=C1c2ccccc2-c2c1cccc2C(=O)N(CCO)CCO,"0.0501 µM [falling, full curve]"
6,O=C(CSc1nnc(-c2cccnc2)n1-c1ccccc1)Nc1ccccn1,"5.01 µM [falling, single point]"
7,CCC(C(=O)Nc1ncn[nH]1)(C(F)(F)F)C(F)(F)F,"0.0316 µM [rising, full curve, poor fit]"
8,O=C1CC(c2cccnc2)c2cc3c(cc2N1)OCO3 (stereo not drawn),"3.16 µM [falling, partial curve]"
9,O=C(CSc1ccc2nnc(-c3ccc(Cl)cc3)n2n1)N1CCCC1,"31.6 µM [rising, single point]"
10,Cc1sccc1C1C(C#N)=C(N)SC(N)=C1C#N,"10 µM [rising, partial curve, poor fit]"
11,CCc1ccc(NC(=O)CSc2nc3cc(C(=O)OC)ccc3c(=O)n2Cc2ccco2)cc1,"3.98 µM [rising, partial curve, poor fit]"
12,COc1ccc(NC(=O)CSc2ccccn2)cc1,"0.02 µM [falling, full curve, poor fit]"
13,O=C1CC(c2ccc3c(c2)OCO3)C2=C(CCCC2=O)N1 (stereo not drawn),"3.16 µM [falling, full curve]"
14,COc1ccc(OC)c(S(=O)(=O)NC2CCN(Cc3ccccc3)CC2)c1,"35.5 µM [falling, single point]"
15,Cc1cc2cc(CNC(=O)C3CC3)ccc2n1C,"0.0126 µM [rising, full curve, poor fit]"
16,COc1ccc(-n2ncc3c(=O)n(CC(=O)N4c5ccccc5CC4C)cnc32)cc1 (stereo not drawn),"20 µM [rising, partial curve]"
17,CCOC(=O)C1Cc2c([nH]c3ccccc23)C(C)N1 (stereo not drawn),"1.26 µM [falling, full curve, poor fit]"
18,C=CCn1c(SCC(=O)Nc2cc(NC(C)=O)ccc2OC)nnc1-c1ccccn1,"25.1 µM [falling, single point]"
19,COC(=O)c1ccccc1NC(=O)Cn1c(=O)n(CCCC(=O)NCc2ccccc2Cl)c(=O)c2ccccc21,"4.47 µM [rising, partial curve, poor fit]"
20,COc1cccc(N=c2oc3ccc(OC)cc3cc2-c2nc3ccccc3[nH]2)c1,"0.00316 µM [falling, full curve, poor fit]"
21,Cc1ccc(NC(=O)c2sc3ccccc3c2Cl)nc1,"0.631 µM [rising, single point]"
22,CCOc1ccc(OCC)c(NC(=O)CNS(=O)(=O)c2cccs2)c1,"15.8 µM [falling, partial curve, poor fit]"

row,Compound,AC50
1,Cn1c(COc2ccc3ccccc3c2)nnc1SCC(N)=O,"0.158 µM [falling, full curve, poor fit]"
2,CCCCOC(=O)C1=C(C)Nc2ncnn2C1c1cc(OC)c(OC)cc1OC (stereo not drawn),"6.31 µM [rising, partial curve, poor fit]"
3,Cc1ccc(NC(=O)CCSc2nc(-c3ccc4c(c3)OCO4)cc(C(F)(F)F)n2)c(C)c1,"20 µM [rising, partial curve]"
4,Cc1csc(SCC(=O)NC(=O)NCc2ccccc2)n1,"0.251 µM [falling, full curve, poor fit]"
5,CCOc1ccc(OCC)c(NC(=O)C2CCCN(S(=O)(=O)c3c(C)noc3C)C2)c1 (stereo not drawn),"0.0126 µM [rising, full curve, poor fit]"
6,Cc1csc(=NC(=O)c2ccccc2)n1C,"0.251 µM [falling, single point]"
7,O=C(O)CS(=O)(=O)CC(=O)O,"0.282 µM [falling, full curve, poor fit]"
8,CCc1ccc(C2=NN(c3ccc(S(N)(=O)=O)cc3)C(c3ccc(F)cc3)C2)cc1 (stereo not drawn),"15.8 µM [rising, single point]"
9,CCOc1ccccc1/C=C(/NC(=O)c1ccccc1)C(=O)NCC(=O)O,"0.00501 µM [falling, full curve, poor fit]"
10,CCC1(COC(=O)Nc2cccc(Cl)c2)COC1,"0.141 µM [falling, full curve, poor fit]"
11,c1ccc(CNc2nc(N3CCOCC3)nc(N3CCOCC3)n2)cc1,"0.2 µM [rising, single point]"
12,Oc1cnc2ccccc2c1CN1CCOCC1,"25.1 µM [rising, partial curve, poor fit]"
13,CCc1c(C)c2ccc(O)c(CN(C)C)c2oc1=O,"12.6 µM [rising, single point]"
14,Cc1nc2ccc(S(=O)(=O)NC(C(=O)NCc3cccs3)C(C)C)cc2s1 (stereo not drawn),"31.6 µM [falling, single point]"
15,CC(Oc1ccccc1F)C(=O)Nc1ccc2ccccc2c1 (stereo not drawn),"1 µM [falling, full curve]"
16,CC1=CC(c2ccccc2)n2nc(N3C(=O)CCC3=O)nc2N1 (stereo not drawn),"6.31 µM [falling, single point]"
17,COCCn1c(Cc2ccccc2)nnc1SCC(=O)N(C)C,"0.141 µM [rising, partial curve]"
18,O=C(O)CSc1ccc2ccccc2n1,"25.1 µM [rising, single point]"
19,O=S(=O)(c1cccc2cccnc12)n1cnc2ccccc21,"5.62 µM [falling, single point]"
20,Cc1ccc(C)c(N2CCN(C(=O)Cc3cn(C)c4ccccc34)CC2)c1,"12.6 µM [falling, partial curve, poor fit]"
21,CC1CN(Cc2ccccc2Cl)CC(C)O1 (stereo not drawn),"2.51 µM [rising, single point]"

# Part of the list above, with bars between the fields.
row | Compound | AC50
4 | Cc1csc(SCC(=O)NC(=O)NCc2ccccc2)n1 | 0.251 µM [falling, full curve, poor fit]
5 | CCOc1ccc(OCC)c(NC(=O)C2CCCN(S(=O)(=O)c3c(C)noc3C)C2)c1 (stereo not drawn) | 0.0126 µM [rising, full curve, poor fit]
6 | Cc1csc(=NC(=O)c2ccccc2)n1C | 0.251 µM [falling, single point]
7 | O=C(O)CS(=O)(=O)CC(=O)O | 0.282 µM [falling, full curve, poor fit]
8 | CCc1ccc(C2=NN(c3ccc(S(N)(=O)=O)cc3)C(c3ccc(F)cc3)C2)cc1 (stereo not drawn) | 15.8 µM [rising, single point]
9 | CCOc1ccccc1/C=C(/NC(=O)c1ccccc1)C(=O)NCC(=O)O | 0.00501 µM [falling, full curve, poor fit]
10 | CCC1(COC(=O)Nc2cccc(Cl)c2)COC1 | 0.141 µM [falling, full curve, poor fit]
11 | c1ccc(CNc2nc(N3CCOCC3)nc(N3CCOCC3)n2)cc1 | 0.2 µM [rising, single point]
